PubChem BioAssay AID2685 (National Center for Advancing Translational Sciences (NCATS), 2010)
The other results are listed elsewhere or left out. Further columns of the screen follow, without active or inactive calls. Most of these compounds were active or inconclusive in the main read-out, so they are no random draw. Words in brackets tell the shape of the fitted curve; partial curves, single points and poor fits give uncertain potencies.

Assay: qHTS Assay for Lipid Storage Modulators in Drosophila S3 Cells;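 for cell number change: cells counted by Cell Tracker Red CMTPX staining in the red channel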
Details: BODIPY lipid droplet fluorescence, 18-24 h; for cell number change: measured here: cell count max response, cells fed with added oleic acid
Method in brief: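 Drosophila S3 cells got compounds at several concentrations plus oleic acid (400 uM solution). Laser-scanning cytometry with 488 nm excitation read lipid droplets at 500-530 nm and cells at 575-640 nm. Percent activity was relative to 20 uM Triacsin C.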

[1] = measured here: cell number channel AC50, cells fed with added oleic acid
[2] = measured here: lipid fluorescence (Fed channel) AC50, cells fed with added oleic acid

SMILES | cell number change [%] | AC50 [1] | AC50 [2]
O=C(NC1CCN(Cc2ccccc2)CC1)c1ccc(N2CC3CC(C2)c2cccc(=O)n2C3)c([N+](=O)[O-])c1 (centres undefined) | 4.93 |  | 
Cc1ncccc1C(=O)N1CCCC(C(=O)c2ccc3c4c(cccc24)CC3)C1 (centres undefined) | -45.7 | 20.6 µM [falling, single point] | 16.4 µM [falling, partial curve]
CCc1cccc(NC(=O)C2CCCN(S(=O)(=O)c3c(C)[nH]c(=O)[nH]c3=O)C2)c1 (centres undefined) | 1.47 |  | 0.146 µM [falling, partial curve, poor fit]
CCc1ccccc1NC(=S)N(Cc1cccc(C)c1)c1cccnc1 |  | 2.91 µM [rising, single point] | 
CC(O)Cc1nsc(NC(=O)c2ccc(Br)o2)n1 (centres undefined) | -40.5 |  | 16.4 µM [falling, single point]
Cc1ccc(SC2=C(C(=O)O)CCCC2)cc1 | 8.06 |  | 
Cc1ccc(Cn2ccc(NC(=O)c3cc(C4CC4)on3)n2)cc1 | -4.13 |  | 8.2 µM [rising, partial curve, poor fit]
O=C(COC(=O)c1cc2ccccc2oc1=O)c1cccc([N+](=O)[O-])c1 | 3.25 |  | 0.82 µM [falling, partial curve]
CC(=O)/C(=N\Nc1ccccc1)Sc1cccc2cccnc12 | 13.8 |  | 1.3 µM [rising, full curve, poor fit]
Cc1ccc(C)n1-c1nnc(N2CCC(C(=O)NCCCN3CC(C)CC(C)C3)CC2)s1 (centres undefined) |  |  | 6.51 µM [falling, single point]
O=C(Cc1ccccc1)NNC(=O)c1cnccn1 | -24.1 | 1.3 µM [falling, full curve, poor fit] | 1.46 µM [falling, full curve, poor fit]
CN(C)/C=N/NC(=O)c1ccc(Cl)cc1 | -38.3 | 29.1 µM [falling, single point] | 29.1 µM [falling, single point]
COc1ccc(N=C2SC(CC(=O)Nc3ccccc3OC)C(=O)N2Cc2ccco2)cc1 (centres undefined) | 167 | 13 µM [rising, partial curve] | 0.164 µM [rising, full curve, poor fit]
Cc1cc(C(=O)Oc2ccccc2C(=O)O)c(C)o1 | -0.325 |  | 1.3 µM [falling, full curve]
COc1ccc(CCN2C(=O)CC(N3CCN(S(=O)(=O)c4ccccc4)CC3)C2=O)cc1OC (centres undefined) | 15.2 | 0.461 µM [rising, partial curve] | 0.00411 µM [rising, full curve, poor fit]
CC12CCC(=O)N1C(C(=O)Nc1cc(S(=O)(=O)N3CCCCCC3)ccc1OCC(F)(F)F)CS2 (centres undefined) | -37.8 | 8.2 µM [falling, partial curve, poor fit] | 2.91 µM [falling, single point]
CCc1ccccc1N(C(=O)c1snc(C(N)=O)c1N)C(C(=O)NCC1CCCO1)c1ccc(OC)c(OC)c1 (centres undefined) | -2.82 |  | 
CCN1C(=O)/C(=C\N(C)C)S/C1=N\S(=O)(=O)c1ccc(C)cc1 | 1.97 | 0.291 µM [rising, partial curve, poor fit] | 2.06 µM [rising, single point]
Cn1c(SCc2cc(=O)n3cc(Br)ccc3n2)nnc1C1COc2ccccc2O1 (centres undefined) | 27.1 | 2.59 µM [rising, single point] | 29.1 µM [rising, single point]
NC(=S)N/N=C/c1ncc(C(F)(F)F)cc1Cl | -32.7 | 16.4 µM [falling, single point] | 20.6 µM [falling, single point]

SMILES | cell number change [%] | AC50 [1] | AC50 [2]
Cc1ccc(CC(=O)NCCN2CCOCC2)cc1 | 3.02 |  | 
C=CCNc1nc(N2CCCC2)nc2ccccc12 |  | 0.184 µM [rising, full curve] | 0.82 µM [rising, full curve]
CCOc1ccccc1N(C(=O)c1snc(C(N)=O)c1N)C(C(=O)NC1CCCC1)c1ccco1 (centres undefined) | 4.04 |  | 3.26 µM [rising, single point]
O=C(CN1CCCc2ccccc21)NCCc1ccc(Cl)cc1 | 30.9 | 16.4 µM [rising, single point] | 0.326 µM [rising, full curve]
COc1ccc(CNC(=O)CN(C(=O)c2csnn2)c2cnc3ccccc3c2)cc1 | 11.5 | 1.3 µM [rising, partial curve] | 
OC(CCN1CCCCC1)(c1ccccc1)C1CCCCC1 (centres undefined) | -5.84 |  | 0.103 µM [falling, full curve, poor fit]
COc1ccccc1NC(=O)COC(=O)CCS(=O)(=O)c1ccc(C)cc1 |  |  | 29.1 µM [falling, single point]
COCCC(=O)N1CCC(Oc2ccc(C(=O)N3C[C@@H](C)O[C@@H](C)C3)cc2)CC1 | -3.59 |  | 
C=CCNC(=S)N1CCN(CCN=Cc2c(C)[nH]n(-c3ccc([N+](=O)[O-])cc3)c2=O)CC1 | 32.2 | 1.03 µM [rising, full curve, poor fit] | 
O=C(COC(=O)CNC(=O)c1ccc(Cl)cc1Cl)NC(=O)NCc1ccccc1 | -6.43 |  | 
CCCn1c(=O)c(C(=O)Nc2ncccc2C)c(O)c2ccccc21 | -7.63 | 4.61 µM [rising, partial curve, poor fit] | 
Cc1cccc(NC(=O)Nc2nnc(N3CCCCC3C)s2)c1C (centres undefined) | -9.59 |  | 
COc1ccccc1NC(=O)Nc1ccc(Cc2ccncc2)cc1 | -46.2 |  | 
COc1ccccc1N1CCN(CCCCOc2ccc(F)cc2)CC1 | 22.2 |  | 6.51 µM [falling, single point]
Cc1ccc(Nc2ccc(C(F)(F)F)cc2[N+](=O)[O-])cc1 | -40.9 | 9.2 µM [falling, partial curve] | 13 µM [falling, partial curve]
OC(CNCCc1ccc(Cl)cc1)COc1ccc2ccccc2c1 (centres undefined) | -72.6 | 1.03 µM [falling, partial curve] | 
Cc1cccc(NC(=O)NCC(c2ccco2)N2CCCCC2)c1 (centres undefined) | -37.9 |  | 4.61 µM [falling, partial curve]
O=C(Nc1ccc(S(=O)(=O)Nc2nccs2)cc1)c1nn(-c2ccc(F)cc2)ccc1=O | -0.382 |  | 0.58 µM [rising, single point]
Cc1cc(CN(C)C(=O)c2cc(COc3ccc4ncccc4c3)on2)on1 | -46.7 | 8.2 µM [falling, partial curve] | 
COC(=O)NC(=C(Cl)Cl)S(=O)(=O)c1ccccc1 | -41.4 | 18.4 µM [falling, partial curve, poor fit] | 1.46 µM [falling, full curve]

Gathered by group, the entries above with a halogen.
SMILES | cell number change [%] | AC50 [1] | AC50 [2]
CC(O)Cc1nsc(NC(=O)c2ccc(Br)o2)n1 (centres undefined) | -40.5 |  | 16.4 µM [falling, single point]
CN(C)/C=N/NC(=O)c1ccc(Cl)cc1 | -38.3 | 29.1 µM [falling, single point] | 29.1 µM [falling, single point]
CC12CCC(=O)N1C(C(=O)Nc1cc(S(=O)(=O)N3CCCCCC3)ccc1OCC(F)(F)F)CS2 (centres undefined) | -37.8 | 8.2 µM [falling, partial curve, poor fit] | 2.91 µM [falling, single point]
Cn1c(SCc2cc(=O)n3cc(Br)ccc3n2)nnc1C1COc2ccccc2O1 (centres undefined) | 27.1 | 2.59 µM [rising, single point] | 29.1 µM [rising, single point]
NC(=S)N/N=C/c1ncc(C(F)(F)F)cc1Cl | -32.7 | 16.4 µM [falling, single point] | 20.6 µM [falling, single point]
O=C(CN1CCCc2ccccc21)NCCc1ccc(Cl)cc1 | 30.9 | 16.4 µM [rising, single point] | 0.326 µM [rising, full curve]
O=C(COC(=O)CNC(=O)c1ccc(Cl)cc1Cl)NC(=O)NCc1ccccc1 | -6.43 |  | 
COc1ccccc1N1CCN(CCCCOc2ccc(F)cc2)CC1 | 22.2 |  | 6.51 µM [falling, single point]
Cc1ccc(Nc2ccc(C(F)(F)F)cc2[N+](=O)[O-])cc1 | -40.9 | 9.2 µM [falling, partial curve] | 13 µM [falling, partial curve]
OC(CNCCc1ccc(Cl)cc1)COc1ccc2ccccc2c1 (centres undefined) | -72.6 | 1.03 µM [falling, partial curve] | 
O=C(Nc1ccc(S(=O)(=O)Nc2nccs2)cc1)c1nn(-c2ccc(F)cc2)ccc1=O | -0.382 |  | 0.58 µM [rising, single point]
COC(=O)NC(=C(Cl)Cl)S(=O)(=O)c1ccccc1 | -41.4 | 18.4 µM [falling, partial curve, poor fit] | 1.46 µM [falling, full curve]

Next part:

SMILES | cell number change [%] | AC50 [1] | AC50 [2]
O=C(Nc1cc(Cl)ccc1-n1cncn1)c1cncc(Br)c1 | 40.4 | 20.6 µM [rising, single point] | 
Cc1onc(-c2c(F)cccc2Cl)c1C(=O)Nc1cccc(Cn2cccn2)c1 | 3.85 |  | 9.2 µM [rising, partial curve, poor fit]
Fc1ccc2nc(Nc3nc4cc5c(cc4s3)OCO5)sc2c1 | -50.1 | 32.6 µM [falling, single point] | 29.1 µM [falling, single point]
COc1ccccc1CC(=O)Nc1cc(C)ccn1 | -8.47 |  | 
Cc1ccc(-c2c(C)n([O-])c3c([n+]2=O)CCC3)o1 | 9.53 |  | 0.731 µM [falling, full curve, poor fit]
CN(C)c1ccc(/C=N/NC(=O)C(=O)/C=C2\NC3(CCCC3)Cc3ccccc32)cc1 | 15.7 | 6.51 µM [rising, single point] | 29.1 µM [falling, single point]
COc1ccc(Cc2nnc(SCC(=O)Nc3ccc(C)cc3)n(N)c2=O)cc1 | 80.1 | 18.4 µM [rising, partial curve] | 
Cc1ccc2nc(NC(=O)c3ccc(Cl)s3)sc2c1 | -31.8 | 1.64 µM [falling, full curve] | 29.1 µM [falling, single point]
O=C(CCc1ccc(S(=O)(=O)N2CCOCC2)cc1)Nc1ccc2c(c1)OCCO2 | -22.9 | 0.651 µM [falling, single point] | 
Cc1ccc(Cl)cc1N=C(N)N=C(N)N | 94.5 |  | 
Cc1ccccc1N/N=C1\CCCNC1=O | -20 |  | 
CC(OC(=O)c1ccc2noc(-c3ccccc3)c2c1)C(N)=O (centres undefined) | -2.63 | 0.58 µM [falling, single point] | 
Cc1ccc2oc(C(=O)Nc3nnc(CC(C)C)s3)c(C)c2c1 | 12.9 | 3.66 µM [rising, partial curve, poor fit] | 
O=c1oc2ccccc2c(Nc2ccccc2)c1CN1CCCCC1 | 26.2 |  | 
COc1ccc2c(c1)C(c1ccccc1)NC(=O)C2 (centres undefined) | 12.7 | 2.06 µM [falling, single point] | 2.06 µM [falling, partial curve]
COc1cccc(C(=O)Nc2ccc(S(=O)(=O)N3CCCCC3)cc2)c1OC | -0.507 |  | 16.4 µM [falling, single point]
COc1cccc(C2CC(c3cccc(Br)c3)n3ncnc3N2)c1 (centres undefined) | -0.142 |  | 
CC(C)(C)NC(=O)CN(Cc1cccs1)C(=O)CNS(=O)(=O)c1ccccc1 | -4.79 |  | 
Cn1nnc(NC(=S)NC(=O)c2cc3ccccc3o2)n1 | 12.3 |  | 20.6 µM [rising, single point]
O=C(Nc1ccccc1)N(C1=NCCCCS1)c1ccccc1 | -6.56 |  | 3.26 µM [falling, single point]
